Test results: paper PMC4741437

Sequences of proteins named here, by UniProt entry; tags and fusion partners are left off. A change or cut given only in a name is not applied to a line headed by its entry. Residues count along the entry.
UniProt P13385, residues 31-150: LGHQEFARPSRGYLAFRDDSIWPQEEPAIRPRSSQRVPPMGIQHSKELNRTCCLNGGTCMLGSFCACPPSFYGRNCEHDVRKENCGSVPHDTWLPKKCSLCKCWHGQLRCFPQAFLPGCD
UniProt Q96S42: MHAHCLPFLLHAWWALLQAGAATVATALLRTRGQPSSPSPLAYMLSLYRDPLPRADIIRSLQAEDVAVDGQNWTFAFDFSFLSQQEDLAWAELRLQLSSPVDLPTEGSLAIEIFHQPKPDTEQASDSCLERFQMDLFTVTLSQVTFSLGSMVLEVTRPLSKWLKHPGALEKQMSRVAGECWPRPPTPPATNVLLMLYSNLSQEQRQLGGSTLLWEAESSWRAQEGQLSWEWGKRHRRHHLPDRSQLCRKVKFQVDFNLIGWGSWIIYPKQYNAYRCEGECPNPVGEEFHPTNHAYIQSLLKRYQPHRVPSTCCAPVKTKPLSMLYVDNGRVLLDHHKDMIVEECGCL

Molecular target: Recombinant human Cripto-1 (human) (UniProt P13385)
Experiment: SPR; rhCripto-1 amine-coupled on a CM5 chip (600 RU); rhNodal at 5 nM in HBS injected, alone or after 30 min pre-incubation with 3D1 mAb at 1:0.5, 1:1 and 1:2 molar ratio; 25°C, HBS (20 mM HEPES, 0.15 M NaCl, pH 7.2, 0.005% P20), 20 uL/min; both purified

binding: binds
Substance: Recombinant human Nodal (from UniProt Q96S42) (ligand)

Results are given in words; binding and its absence hold for the method and conditions named. Binding calls can cover weak binding; strength is not graded here.
